Measurements taken from US6353024B1, “Method for preventing and treating arthritis, osteo-traumatic pain, and neuralgias with trimebutine” (Warner-Lambert Company, priority 2000, dated 2002).

Tested on: sodium current of DRG neurons
Assay: whole cell patch clamp, sodium currents in DRG neurons
Assay type: cell-based, rat
Settings: maleate

In the case of `CCC(COC(=O)c1cc(OC)c(OC)c(OC)c1)(c1ccccc1)N(C)C.O=C(O)/C=C\C(=O)O` (racemic) [trimebutine, 2-dimethylamino-2-phenylbutyl 3,4,5-trimethoxybenzoate hydrogen maleate], the “nH (Hill coefficient), Na+ current block” value is reported as 1.02 and 1.09±0.10.

Where “and” joins values, the source holds several entries; their conditions need not be identical. Equal entries are not always repeated.
